# Library screen at single concentrations

By UniProt entry, the sequences of proteins in these tests, tags left out. Residues count along the entry.
UniProt I6X8D2, whole entry: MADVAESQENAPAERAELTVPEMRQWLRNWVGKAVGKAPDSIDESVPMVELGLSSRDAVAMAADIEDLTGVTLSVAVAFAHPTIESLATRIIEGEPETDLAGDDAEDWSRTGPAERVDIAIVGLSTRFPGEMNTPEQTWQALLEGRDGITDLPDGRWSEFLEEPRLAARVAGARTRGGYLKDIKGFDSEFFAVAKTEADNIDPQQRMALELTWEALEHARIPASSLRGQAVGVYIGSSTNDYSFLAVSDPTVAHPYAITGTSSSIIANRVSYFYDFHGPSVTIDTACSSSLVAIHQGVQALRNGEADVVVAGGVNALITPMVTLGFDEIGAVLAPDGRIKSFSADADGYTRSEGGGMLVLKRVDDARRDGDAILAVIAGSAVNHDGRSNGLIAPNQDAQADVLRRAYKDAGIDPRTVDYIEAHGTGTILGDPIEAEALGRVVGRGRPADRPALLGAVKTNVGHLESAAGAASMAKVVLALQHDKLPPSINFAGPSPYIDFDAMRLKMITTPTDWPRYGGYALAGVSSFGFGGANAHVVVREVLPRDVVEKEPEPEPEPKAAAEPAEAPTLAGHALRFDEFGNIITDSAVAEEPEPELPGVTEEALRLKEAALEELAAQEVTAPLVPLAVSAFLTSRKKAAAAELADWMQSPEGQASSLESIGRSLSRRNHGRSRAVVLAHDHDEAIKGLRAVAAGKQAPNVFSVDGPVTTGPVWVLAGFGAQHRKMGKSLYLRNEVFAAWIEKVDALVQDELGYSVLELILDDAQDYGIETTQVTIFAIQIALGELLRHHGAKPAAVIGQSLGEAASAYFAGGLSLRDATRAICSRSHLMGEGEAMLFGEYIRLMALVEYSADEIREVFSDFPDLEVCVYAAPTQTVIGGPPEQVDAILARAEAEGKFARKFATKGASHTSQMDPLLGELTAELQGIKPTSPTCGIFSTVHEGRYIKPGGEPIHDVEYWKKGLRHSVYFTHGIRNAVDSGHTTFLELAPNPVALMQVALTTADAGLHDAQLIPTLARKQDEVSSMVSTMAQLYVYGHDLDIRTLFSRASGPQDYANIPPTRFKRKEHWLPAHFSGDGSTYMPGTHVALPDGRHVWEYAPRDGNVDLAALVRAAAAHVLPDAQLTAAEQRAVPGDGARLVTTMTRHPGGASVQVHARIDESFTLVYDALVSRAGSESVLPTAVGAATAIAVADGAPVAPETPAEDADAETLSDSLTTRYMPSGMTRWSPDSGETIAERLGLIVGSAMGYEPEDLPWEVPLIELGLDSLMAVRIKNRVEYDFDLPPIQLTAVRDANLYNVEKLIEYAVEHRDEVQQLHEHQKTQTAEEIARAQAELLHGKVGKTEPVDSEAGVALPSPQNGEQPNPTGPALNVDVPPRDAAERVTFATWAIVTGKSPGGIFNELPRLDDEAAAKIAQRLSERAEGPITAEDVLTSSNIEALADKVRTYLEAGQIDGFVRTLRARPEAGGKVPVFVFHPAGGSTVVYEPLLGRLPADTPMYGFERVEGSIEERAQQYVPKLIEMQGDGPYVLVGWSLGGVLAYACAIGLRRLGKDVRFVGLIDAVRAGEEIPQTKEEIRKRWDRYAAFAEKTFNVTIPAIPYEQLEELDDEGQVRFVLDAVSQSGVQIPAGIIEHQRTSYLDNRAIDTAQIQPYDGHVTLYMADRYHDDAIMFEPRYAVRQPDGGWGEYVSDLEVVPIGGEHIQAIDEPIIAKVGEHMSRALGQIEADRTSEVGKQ
UniProt Q4DA54, 1-478: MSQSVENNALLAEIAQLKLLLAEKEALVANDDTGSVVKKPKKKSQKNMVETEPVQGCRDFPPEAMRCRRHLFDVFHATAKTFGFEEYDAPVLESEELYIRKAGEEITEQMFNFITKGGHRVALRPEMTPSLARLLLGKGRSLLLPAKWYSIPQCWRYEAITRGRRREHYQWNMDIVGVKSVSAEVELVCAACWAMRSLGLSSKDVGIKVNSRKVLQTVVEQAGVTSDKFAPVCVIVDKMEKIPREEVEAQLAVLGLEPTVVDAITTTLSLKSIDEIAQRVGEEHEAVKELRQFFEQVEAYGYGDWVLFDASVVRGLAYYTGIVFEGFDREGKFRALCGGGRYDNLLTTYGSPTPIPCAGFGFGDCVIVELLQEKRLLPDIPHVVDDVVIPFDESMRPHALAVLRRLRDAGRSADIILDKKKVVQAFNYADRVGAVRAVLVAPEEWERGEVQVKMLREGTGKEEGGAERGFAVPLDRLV
UniProt P9WFT3, whole entry: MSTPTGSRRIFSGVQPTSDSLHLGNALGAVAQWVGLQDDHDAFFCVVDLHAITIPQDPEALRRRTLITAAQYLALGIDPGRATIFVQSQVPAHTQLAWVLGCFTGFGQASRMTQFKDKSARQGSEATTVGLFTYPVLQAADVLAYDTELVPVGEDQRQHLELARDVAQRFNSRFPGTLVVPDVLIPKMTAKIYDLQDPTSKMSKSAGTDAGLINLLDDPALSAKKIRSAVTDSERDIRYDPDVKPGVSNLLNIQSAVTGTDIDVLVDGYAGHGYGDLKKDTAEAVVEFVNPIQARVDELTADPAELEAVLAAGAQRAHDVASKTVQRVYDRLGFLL
UniProt P9WPC5, whole entry: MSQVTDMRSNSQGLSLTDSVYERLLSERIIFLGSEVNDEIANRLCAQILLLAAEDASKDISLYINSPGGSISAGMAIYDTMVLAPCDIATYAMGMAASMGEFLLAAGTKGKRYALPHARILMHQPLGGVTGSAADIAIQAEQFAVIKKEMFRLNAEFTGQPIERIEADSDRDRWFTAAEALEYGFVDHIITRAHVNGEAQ
UniProt P9WPC3, whole entry partner: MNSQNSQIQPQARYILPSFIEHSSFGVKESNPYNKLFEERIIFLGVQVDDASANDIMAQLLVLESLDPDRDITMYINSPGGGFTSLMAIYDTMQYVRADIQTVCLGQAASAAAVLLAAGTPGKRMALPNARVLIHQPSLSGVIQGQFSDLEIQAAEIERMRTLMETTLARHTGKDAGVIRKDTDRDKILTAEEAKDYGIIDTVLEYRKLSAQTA

Source: ChEMBL document CHEMBL3988442, “University of Dundee, Small-Polar-MMV Screening Library” (2021).

Pks13 thioesterase: 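Enzyme assay of the thioesterase domain of polyketide synthase 13; the read-out is not stated. Target: Polyketide synthase Pks13, Mycobacterium tuberculosis (UniProt I6X8D2). Tested at 30 µM. The record gives no direction; the compounds picked for IC50 retests had high values, so higher reads as stronger inhibition. About 67,000 compounds were tested under these conditions; 0.46% (about 300) showed 50% or more at least once.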
TcHisRS: 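Histidine-tRNA ligase, Trypanosoma cruzi CL Brener (UniProt Q4DA54). Enzyme assay of histidyl-tRNA synthetase; the read-out is not stated. Tested at 30 µM. Higher reads as stronger inhibition (inferred: compounds with an IC50 in retests scored well above the rest). About 69,000 compounds were tested under these conditions; 0.045% (about 31) showed 50% or more at least once.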
MtTrpRS: 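Tryptophan-tRNA ligase, Mycobacterium tuberculosis (UniProt P9WFT3). Enzyme assay of tryptophanyl-tRNA synthetase; the read-out is not stated. Tested at 10 µM. Higher most likely means stronger inhibition; the record gives no direction and few retests gave an IC50. About 65,000 compounds were tested under these conditions; 0.098% (about 64) showed 50% or more at least once.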
ClpP1P2: 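Protease assay of ClpP1P2, read by the AMC dye that it sets free. Target: ClpP1P2, Mycobacterium tuberculosis (UniProt P9WPC5 and UniProt P9WPC3). Tested at 50 µM. Direction is inferred from only a few compounds that gave an IC50; most scored high, so higher reads as stronger inhibition. Most other retested compounds had strongly negative values. About 69,000 compounds were tested under these conditions; 0.015% (about 10) showed 50% or more at least once.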

The filed quantity is “Percent Effect” (%).
The record does not define 0% and 100%; most values in the screen are far below 50% and negative numbers occur (in some assays of this library far below -100).
The compounds are a random part of those screened.

{"compound": "CCOC(C(=O)N1CCn2c(C)nnc2C1)c1ccccc1", "stereo": "stereo unspecified", "Pks13 thioesterase": -17.46, "TcHisRS": -3.922, "MtTrpRS": 1.65, "ClpP1P2": -1.631}
{"compound": "c1ccc(-c2nnc(C3CCCN(CC4CCCCC4)C3)o2)nc1", "stereo": "stereo unspecified", "Pks13 thioesterase": 5.951, "TcHisRS": 6.742, "ClpP1P2": -13.49}
{"compound": "CCCC(=O)N(C)c1cccc2ncccc12", "Pks13 thioesterase": -10.53, "TcHisRS": 5.844, "MtTrpRS": -4.591, "ClpP1P2": 1.315}
{"compound": "CCCc1nnc(N2CCC(N3CCN(CCO)CC3)CC2)o1", "Pks13 thioesterase": -24.35, "TcHisRS": 5.455, "MtTrpRS": 2.542, "ClpP1P2": -2.39}
{"compound": "CC(O)CN1CCC(CNCc2ccccc2Cl)CC1", "stereo": "stereo unspecified", "Pks13 thioesterase": -18.07, "TcHisRS": 2.941, "MtTrpRS": 0.728, "ClpP1P2": -45.26}
{"compound": "CC(C)NC(=O)CCNC(=O)Nc1ccc(-n2cncn2)c(F)c1", "Pks13 thioesterase": -6.492, "TcHisRS": 2.353, "MtTrpRS": -4.16, "ClpP1P2": -36.48}
{"compound": "CC1(c2ccccc2)CCCN(Cc2cncn2C2CCCC2)C1", "stereo": "stereo unspecified", "Pks13 thioesterase": -88.12, "TcHisRS": 6.494, "MtTrpRS": -0.3096, "ClpP1P2": 1.02}
{"compound": "Cc1cc(CN2CCN(C(=O)NC(C)c3ccncc3)CC2)on1", "stereo": "stereo unspecified", "Pks13 thioesterase": -14.91, "TcHisRS": 4.734, "MtTrpRS": -7.47, "ClpP1P2": -32.36}
{"compound": "CC(C)Cc1nc(OCC#N)c(C#N)c2c1CCC2", "Pks13 thioesterase": 40.04, "TcHisRS": 2.41, "MtTrpRS": -2.418, "ClpP1P2": 3.569}
{"compound": "Cc1nc(C)n(CCCn2ccnc2-c2cc3n(n2)CCCNC3)n1", "Pks13 thioesterase": -21.21, "TcHisRS": 5.464, "MtTrpRS": -3.614, "ClpP1P2": -12.8}
{"compound": "Cc1cc(CN2CCCC2)cc(Oc2ccc(C(F)(F)F)cn2)c1", "Pks13 thioesterase": 1.97, "TcHisRS": 4.372, "MtTrpRS": 0.5961, "ClpP1P2": -6.508}
{"compound": "O=C1CC2(CCN(S(=O)(=O)c3cccs3)C2)CN1c1ccccc1", "stereo": "stereo unspecified", "Pks13 thioesterase": -8.03, "TcHisRS": 4.511, "MtTrpRS": 3.893, "ClpP1P2": 5.9}
{"compound": "CCOc1c(Br)cc(CNC(C)c2nnc3n2CCC3)cc1OC", "stereo": "stereo unspecified", "Pks13 thioesterase": -10.99, "TcHisRS": 2.299, "MtTrpRS": -4.204, "ClpP1P2": -6.119}
{"compound": "CSCC(=O)Nc1ncn(Cc2cccc(Br)c2)n1", "Pks13 thioesterase": -27.8, "TcHisRS": 0.5618, "MtTrpRS": -5.307, "ClpP1P2": -1.51}
{"compound": "CCc1nnc(CN2CCN(C(=O)c3ccccn3)CC2)o1", "Pks13 thioesterase": -5.999, "TcHisRS": -2.642, "MtTrpRS": -0.5473, "ClpP1P2": 3.353}
{"compound": "CCN(CC1CCOC1)C(=O)c1ccccc1S(=O)(=O)CC", "stereo": "stereo unspecified", "Pks13 thioesterase": -7.49, "TcHisRS": 2.312, "MtTrpRS": 1.687, "ClpP1P2": -20.19}
{"compound": "Cn1nc(Br)c2c(NCCCS(N)(=O)=O)ncnc21", "Pks13 thioesterase": -4.092, "TcHisRS": 7.453, "MtTrpRS": 0.5424, "ClpP1P2": -22.49}
{"compound": "Cc1nnsc1CN1CCCC1c1nc(-c2ccccc2)no1", "stereo": "stereo unspecified", "Pks13 thioesterase": -28.89, "TcHisRS": 3.448, "MtTrpRS": -5.277, "ClpP1P2": 4.498}
{"compound": "CCS(=O)(=O)NCC1Cn2nnc(-c3cccc(C)c3)c2CO1", "stereo": "stereo unspecified", "Pks13 thioesterase": 15.56, "TcHisRS": 0, "MtTrpRS": -2.371, "ClpP1P2": -0.9845}
{"compound": "O=C(NCc1ccco1)[C@H]1C[C@H]2OCC[C@H]2N(S(=O)(=O)C2CC2)C1", "Pks13 thioesterase": -7.988, "TcHisRS": 2.703, "MtTrpRS": 1.364, "ClpP1P2": 5.541}
{"compound": "CN(Cc1ccoc1)C(=O)C1(Oc2ccc(Cl)cc2)CCNCC1", "Pks13 thioesterase": -39.26, "TcHisRS": 0.5435, "MtTrpRS": -6.286, "ClpP1P2": 6.581}
{"compound": "CCc1nn(C)c(Cl)c1CN1CCCC2(C1)CN(C)C(=O)O2", "stereo": "stereo unspecified", "Pks13 thioesterase": -19.21, "TcHisRS": 2.488, "MtTrpRS": 1.836, "ClpP1P2": -2.108}
{"compound": "CCn1cc(CN2CCC(N3CCC(O)CC3)CC2)cc1C#N", "Pks13 thioesterase": -14.82, "TcHisRS": 11.39, "MtTrpRS": 1.142, "ClpP1P2": -7.874}
{"compound": "Cc1cc(C(F)(F)F)nc(CNC(=O)CCCN2CCCCC2)n1", "Pks13 thioesterase": -12.49, "TcHisRS": 1.734, "MtTrpRS": -1.459, "ClpP1P2": 3.018}
{"compound": "CC(C)=CCN1CCc2onc(-c3ccc(F)c(F)c3)c2C1", "Pks13 thioesterase": 5.287, "TcHisRS": -8.696, "MtTrpRS": -2.026, "ClpP1P2": -129.8}
{"compound": "CNC(=O)C1(CCCc2ccccn2)CCN1Cc1coc(C)n1", "stereo": "stereo unspecified", "Pks13 thioesterase": -9.57, "TcHisRS": 1.149, "MtTrpRS": 11.21, "ClpP1P2": -5.089}
{"compound": "CCC(O)CN1CCN(C(=O)c2csc(COC)n2)CC1", "stereo": "stereo unspecified", "Pks13 thioesterase": 0.1057, "TcHisRS": 7.059, "MtTrpRS": -6.199, "ClpP1P2": -5.921}
{"compound": "Cc1cc(-c2ccnn2C)nc(C2CCN(S(C)(=O)=O)CC2)n1", "Pks13 thioesterase": 2.038, "TcHisRS": 1.13, "MtTrpRS": -0.8486, "ClpP1P2": -11.57}
{"compound": "CNC(=O)[C@@H]1C[C@H]2CN(C(=O)c3ccco3)C[C@H]2N1C(C)C", "Pks13 thioesterase": -15.41, "TcHisRS": 8.571, "MtTrpRS": 0.08865, "ClpP1P2": -4.793}
{"compound": "COc1ccc(OCCCNCCn2cccn2)cc1", "Pks13 thioesterase": -35.02, "TcHisRS": -5.634, "MtTrpRS": 16.61, "ClpP1P2": -17.41}

2 of the entries, repeated:

{"compound": "CCc1nnc(CN2CCN(C(=O)c3ccccn3)CC2)o1", "Pks13 thioesterase": -5.999, "TcHisRS": -2.642, "MtTrpRS": -0.5473, "ClpP1P2": 3.353}
{"compound": "CC(O)CN1CCC(CNCc2ccccc2Cl)CC1", "stereo": "stereo unspecified", "Pks13 thioesterase": -18.07, "TcHisRS": 2.941, "MtTrpRS": 0.728, "ClpP1P2": -45.26}